# Data: PMC7862700
# Chains of the proteins cited; added tags and fusions are not shown. Lines headed by an entry give the natural chain unless they say otherwise; changes in a name come on top.
# UniProt O43186: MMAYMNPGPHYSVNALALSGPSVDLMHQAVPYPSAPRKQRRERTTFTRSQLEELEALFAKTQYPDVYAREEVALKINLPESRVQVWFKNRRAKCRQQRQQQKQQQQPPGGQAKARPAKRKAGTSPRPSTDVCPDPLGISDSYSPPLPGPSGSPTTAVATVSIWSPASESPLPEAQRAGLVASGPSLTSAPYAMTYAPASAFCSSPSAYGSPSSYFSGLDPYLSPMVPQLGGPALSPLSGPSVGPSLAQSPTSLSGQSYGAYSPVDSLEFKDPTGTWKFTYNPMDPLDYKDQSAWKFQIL
# This is a selection; strong and weak results do not stand in their true shares. At the low end of the ranking the order means little.
# Target: CRX (UniProt O43186)
# Test: DAPPL (digital affinity profiling via proximity ligation, sequencing)
# Conditions: 10 mM Tris-HCl pH 7.5, 50 mM NaCl, 1 mM DTT, 4% glycerol, room temperature, 30 min; GST-TFs on glutathione beads, 16-mer random dsDNA library, 0.1% …; high values mean tight binding; double strand, one strand shown; scale: fold enrichment (6-mer frequency, TF over GST control)
row,Sequence,binding signal
1,CCGCCT,1.25
2,CGACCT,1.21
3,TTAATG,2.75
4,AACGAC,0.949
5,TCTTAC,1.7
6,TTGATG,1.5
7,GTCTTC,0.858
8,TGACGA,0.941
9,TCTCTG,1.49
10,CTCCGC,1.3
11,CAACAT,0.862
12,GATGGT,0.935
13,ATAACT,1.29
14,TTATAC,2.54
15,TGTAGC,0.969
16,GATCTT,1.71
17,TGCGTA,0.998
18,GTCTTT,1.24
19,AACCAT,1.05
20,CCCACA,0.878

# Nothing new here: an excerpt of the list.
row,Sequence,binding signal
18,GTCTTT,1.24
19,AACCAT,1.05

# Going on with the list.

row,Sequence,binding signal
1,TGTAAT,1.79
2,ACGGCC,0.828
3,CTTTCT,1.76
4,GTAACT,0.966
5,TAAAGA,1.85
6,AAAAGA,1.28
7,GTACAT,0.902
8,TTCTCG,2.17
9,GTTCAT,0.967
10,GTCACA,0.722
11,CCTTGG,1.09
12,TACGTA,1.49
13,TAAACA,1.53
14,ATGTTC,1.22
15,CGACGT,0.795
16,ATGGCC,1.08
17,TATAAG,2.08
18,AAGGAA,0.942
19,CGACCG,0.823
